# Experimental data from the supplement of paper PMC12067093, “Discovery and optimisation of a covalent ligand for TRIM25 and its application to targeted protein ubiquitination” (Chemical Science, 2025).
# Amino acid sequences for entries named in this document (tags omitted). A change or cut given only in a name is not applied to a line headed by its entry.
# UniProt Q8N201, whole entry, looked up: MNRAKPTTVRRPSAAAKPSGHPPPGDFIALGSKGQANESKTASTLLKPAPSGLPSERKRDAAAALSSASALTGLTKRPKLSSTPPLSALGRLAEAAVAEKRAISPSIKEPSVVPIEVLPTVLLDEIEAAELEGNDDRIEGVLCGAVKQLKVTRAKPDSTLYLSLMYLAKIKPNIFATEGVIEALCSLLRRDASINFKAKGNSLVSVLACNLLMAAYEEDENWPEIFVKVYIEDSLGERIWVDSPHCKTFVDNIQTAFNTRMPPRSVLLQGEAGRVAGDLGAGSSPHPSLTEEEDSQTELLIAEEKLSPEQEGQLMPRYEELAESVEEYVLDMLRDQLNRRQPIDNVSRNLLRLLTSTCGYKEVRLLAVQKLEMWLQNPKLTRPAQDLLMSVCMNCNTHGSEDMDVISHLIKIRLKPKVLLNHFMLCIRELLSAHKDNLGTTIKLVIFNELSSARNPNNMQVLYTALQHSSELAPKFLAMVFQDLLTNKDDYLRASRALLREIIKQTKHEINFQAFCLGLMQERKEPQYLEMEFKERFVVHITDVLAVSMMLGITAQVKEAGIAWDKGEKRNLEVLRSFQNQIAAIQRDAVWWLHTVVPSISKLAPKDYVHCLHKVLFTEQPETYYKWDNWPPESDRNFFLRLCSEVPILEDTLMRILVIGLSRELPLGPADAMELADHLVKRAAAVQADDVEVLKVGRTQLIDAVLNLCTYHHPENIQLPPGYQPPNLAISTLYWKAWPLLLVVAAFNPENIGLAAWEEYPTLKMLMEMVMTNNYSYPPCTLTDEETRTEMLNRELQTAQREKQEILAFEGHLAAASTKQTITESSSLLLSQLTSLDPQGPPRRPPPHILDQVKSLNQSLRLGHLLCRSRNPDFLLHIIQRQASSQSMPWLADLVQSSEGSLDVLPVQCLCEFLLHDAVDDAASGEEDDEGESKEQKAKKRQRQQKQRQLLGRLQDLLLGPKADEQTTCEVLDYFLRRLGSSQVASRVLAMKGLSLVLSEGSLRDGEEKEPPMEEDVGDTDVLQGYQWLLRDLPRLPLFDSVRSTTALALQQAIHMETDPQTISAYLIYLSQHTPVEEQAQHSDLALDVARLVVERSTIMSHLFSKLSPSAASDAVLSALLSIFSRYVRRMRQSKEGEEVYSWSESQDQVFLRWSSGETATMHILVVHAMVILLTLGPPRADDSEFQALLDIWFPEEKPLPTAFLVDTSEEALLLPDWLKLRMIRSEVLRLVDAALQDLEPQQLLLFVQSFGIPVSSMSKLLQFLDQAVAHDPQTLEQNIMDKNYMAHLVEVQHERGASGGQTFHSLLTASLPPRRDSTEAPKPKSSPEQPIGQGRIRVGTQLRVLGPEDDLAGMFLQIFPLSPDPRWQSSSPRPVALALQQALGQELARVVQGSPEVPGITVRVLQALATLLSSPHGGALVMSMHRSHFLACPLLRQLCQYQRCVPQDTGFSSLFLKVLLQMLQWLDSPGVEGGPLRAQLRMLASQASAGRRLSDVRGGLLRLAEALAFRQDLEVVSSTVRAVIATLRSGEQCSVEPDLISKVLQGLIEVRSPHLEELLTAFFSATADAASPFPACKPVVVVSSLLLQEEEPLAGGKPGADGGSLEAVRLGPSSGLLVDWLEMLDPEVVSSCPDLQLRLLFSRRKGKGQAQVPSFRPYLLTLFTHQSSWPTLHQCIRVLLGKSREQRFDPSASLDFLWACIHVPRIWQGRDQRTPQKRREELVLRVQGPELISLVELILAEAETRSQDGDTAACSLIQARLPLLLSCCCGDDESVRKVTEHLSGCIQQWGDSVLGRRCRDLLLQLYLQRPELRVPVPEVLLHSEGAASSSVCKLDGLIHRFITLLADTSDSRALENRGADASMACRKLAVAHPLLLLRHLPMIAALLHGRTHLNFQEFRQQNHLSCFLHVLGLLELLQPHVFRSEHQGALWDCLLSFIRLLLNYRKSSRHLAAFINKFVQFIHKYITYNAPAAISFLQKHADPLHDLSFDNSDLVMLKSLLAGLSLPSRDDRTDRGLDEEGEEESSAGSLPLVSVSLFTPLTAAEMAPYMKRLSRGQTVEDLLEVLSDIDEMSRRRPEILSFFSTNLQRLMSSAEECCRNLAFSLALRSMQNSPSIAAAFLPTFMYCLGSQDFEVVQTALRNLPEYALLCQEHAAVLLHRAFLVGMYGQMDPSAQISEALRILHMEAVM
# UniProt Q9UI26: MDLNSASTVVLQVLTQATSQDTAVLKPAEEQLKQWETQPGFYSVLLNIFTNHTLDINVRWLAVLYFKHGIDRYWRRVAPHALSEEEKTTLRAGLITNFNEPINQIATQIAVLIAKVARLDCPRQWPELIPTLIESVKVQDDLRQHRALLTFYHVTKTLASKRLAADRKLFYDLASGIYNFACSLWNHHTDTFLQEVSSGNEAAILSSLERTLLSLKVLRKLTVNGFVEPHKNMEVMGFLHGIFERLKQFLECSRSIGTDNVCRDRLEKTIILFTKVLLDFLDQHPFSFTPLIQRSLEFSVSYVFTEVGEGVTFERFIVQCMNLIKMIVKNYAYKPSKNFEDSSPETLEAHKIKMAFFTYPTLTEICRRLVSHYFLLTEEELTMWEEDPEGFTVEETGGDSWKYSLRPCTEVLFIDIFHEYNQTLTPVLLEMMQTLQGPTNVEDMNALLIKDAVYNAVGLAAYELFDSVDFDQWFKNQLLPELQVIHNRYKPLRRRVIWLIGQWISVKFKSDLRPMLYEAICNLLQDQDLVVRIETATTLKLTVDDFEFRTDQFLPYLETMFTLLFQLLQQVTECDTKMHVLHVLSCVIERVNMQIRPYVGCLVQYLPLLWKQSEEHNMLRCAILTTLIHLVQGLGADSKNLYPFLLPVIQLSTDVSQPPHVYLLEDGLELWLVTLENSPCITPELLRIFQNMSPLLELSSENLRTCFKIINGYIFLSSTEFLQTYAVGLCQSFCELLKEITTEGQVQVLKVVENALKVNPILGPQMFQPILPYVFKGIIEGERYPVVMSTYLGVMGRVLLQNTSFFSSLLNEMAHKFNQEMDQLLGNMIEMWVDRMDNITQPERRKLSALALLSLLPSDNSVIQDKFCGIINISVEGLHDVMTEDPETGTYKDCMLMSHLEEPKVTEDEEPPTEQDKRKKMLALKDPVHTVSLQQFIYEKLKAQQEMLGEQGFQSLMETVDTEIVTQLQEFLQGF
# UniProt Q86VI3: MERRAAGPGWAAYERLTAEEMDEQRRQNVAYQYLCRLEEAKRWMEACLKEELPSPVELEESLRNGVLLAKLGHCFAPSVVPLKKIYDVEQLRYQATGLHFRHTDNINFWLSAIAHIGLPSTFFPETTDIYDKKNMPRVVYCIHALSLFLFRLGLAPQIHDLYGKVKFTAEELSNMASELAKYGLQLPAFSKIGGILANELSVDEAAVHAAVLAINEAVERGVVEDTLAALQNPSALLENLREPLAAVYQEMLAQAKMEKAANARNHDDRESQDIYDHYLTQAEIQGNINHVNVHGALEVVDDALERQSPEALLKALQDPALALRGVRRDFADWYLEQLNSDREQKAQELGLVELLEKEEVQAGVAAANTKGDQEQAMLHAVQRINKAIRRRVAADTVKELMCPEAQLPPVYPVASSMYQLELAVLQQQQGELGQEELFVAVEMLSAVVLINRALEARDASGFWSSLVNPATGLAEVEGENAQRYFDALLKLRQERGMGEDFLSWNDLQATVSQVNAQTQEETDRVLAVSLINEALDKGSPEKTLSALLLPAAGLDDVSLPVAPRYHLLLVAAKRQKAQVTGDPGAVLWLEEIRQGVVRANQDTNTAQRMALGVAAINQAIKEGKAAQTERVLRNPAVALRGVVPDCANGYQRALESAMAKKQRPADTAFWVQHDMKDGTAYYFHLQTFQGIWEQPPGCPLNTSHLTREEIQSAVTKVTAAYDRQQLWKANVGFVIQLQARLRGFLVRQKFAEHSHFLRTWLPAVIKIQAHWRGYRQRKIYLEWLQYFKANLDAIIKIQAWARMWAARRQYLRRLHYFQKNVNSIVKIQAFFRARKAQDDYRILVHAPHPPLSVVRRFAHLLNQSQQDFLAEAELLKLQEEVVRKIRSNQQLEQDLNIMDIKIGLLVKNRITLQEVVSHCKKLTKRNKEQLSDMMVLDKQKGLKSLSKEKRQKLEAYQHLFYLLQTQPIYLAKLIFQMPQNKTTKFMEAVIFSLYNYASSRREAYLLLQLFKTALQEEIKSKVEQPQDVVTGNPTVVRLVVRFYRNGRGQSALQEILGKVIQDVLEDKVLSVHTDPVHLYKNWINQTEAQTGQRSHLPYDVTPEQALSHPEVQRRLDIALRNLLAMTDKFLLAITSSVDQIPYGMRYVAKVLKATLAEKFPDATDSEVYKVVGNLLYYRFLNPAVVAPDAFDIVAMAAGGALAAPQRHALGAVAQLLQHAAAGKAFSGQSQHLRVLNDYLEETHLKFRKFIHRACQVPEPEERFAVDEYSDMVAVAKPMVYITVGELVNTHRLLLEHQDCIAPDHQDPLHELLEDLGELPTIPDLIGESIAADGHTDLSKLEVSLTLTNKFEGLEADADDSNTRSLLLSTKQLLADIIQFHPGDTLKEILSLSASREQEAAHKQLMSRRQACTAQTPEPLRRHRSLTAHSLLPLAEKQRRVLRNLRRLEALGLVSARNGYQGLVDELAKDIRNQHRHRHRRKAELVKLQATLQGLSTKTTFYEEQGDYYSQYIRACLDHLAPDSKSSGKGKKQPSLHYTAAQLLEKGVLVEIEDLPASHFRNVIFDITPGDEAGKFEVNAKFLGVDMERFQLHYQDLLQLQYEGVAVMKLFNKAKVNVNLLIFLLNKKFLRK
# UniProt Q8TEX9: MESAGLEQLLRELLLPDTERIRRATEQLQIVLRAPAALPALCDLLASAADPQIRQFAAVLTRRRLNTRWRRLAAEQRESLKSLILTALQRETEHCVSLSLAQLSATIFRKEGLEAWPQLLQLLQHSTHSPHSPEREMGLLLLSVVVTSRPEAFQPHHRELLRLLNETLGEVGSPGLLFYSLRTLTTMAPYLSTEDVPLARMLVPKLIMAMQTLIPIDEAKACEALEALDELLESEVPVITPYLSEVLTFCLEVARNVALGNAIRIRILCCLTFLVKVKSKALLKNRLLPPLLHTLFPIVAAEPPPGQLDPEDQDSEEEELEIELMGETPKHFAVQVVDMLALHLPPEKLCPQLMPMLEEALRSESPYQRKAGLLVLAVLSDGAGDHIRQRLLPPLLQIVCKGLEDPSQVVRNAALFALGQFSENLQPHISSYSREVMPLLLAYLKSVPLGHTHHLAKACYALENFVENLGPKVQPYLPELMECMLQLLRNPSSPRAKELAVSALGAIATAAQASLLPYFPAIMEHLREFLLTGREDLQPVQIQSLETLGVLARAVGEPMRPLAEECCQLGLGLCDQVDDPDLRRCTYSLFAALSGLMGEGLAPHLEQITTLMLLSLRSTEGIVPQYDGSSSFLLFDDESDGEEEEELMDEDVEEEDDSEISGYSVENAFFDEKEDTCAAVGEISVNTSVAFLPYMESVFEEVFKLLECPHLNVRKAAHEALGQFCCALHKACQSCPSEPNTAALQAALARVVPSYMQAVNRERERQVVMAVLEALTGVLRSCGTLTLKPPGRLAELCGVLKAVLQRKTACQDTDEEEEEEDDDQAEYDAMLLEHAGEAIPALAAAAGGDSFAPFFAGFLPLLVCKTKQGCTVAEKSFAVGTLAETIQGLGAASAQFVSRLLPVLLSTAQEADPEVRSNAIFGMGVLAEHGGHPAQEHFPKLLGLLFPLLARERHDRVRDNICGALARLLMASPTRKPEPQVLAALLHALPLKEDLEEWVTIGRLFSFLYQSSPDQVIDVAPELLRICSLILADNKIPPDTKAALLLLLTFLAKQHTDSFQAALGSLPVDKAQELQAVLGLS
# UniProt Q96AB3: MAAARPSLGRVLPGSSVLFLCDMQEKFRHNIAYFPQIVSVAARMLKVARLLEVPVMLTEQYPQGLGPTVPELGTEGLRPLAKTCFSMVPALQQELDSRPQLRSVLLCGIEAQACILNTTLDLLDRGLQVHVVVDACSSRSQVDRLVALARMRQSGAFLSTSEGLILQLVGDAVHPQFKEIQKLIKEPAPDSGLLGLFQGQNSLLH
# Some of the results follow.
# Compound: Cc1cc(ccc1-c1ccccc1)C(=O)N1CCCN(CC1)C(=O)CCl [compound 10]
# Experiment: probe-labelled cysteine peptide fold change vs DMSO (competition) (log2 fold change); higher = less target engagement (more negative = stronger competition)
# Details: THP-1, incubation time: 4 h
# 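Further: competitive profiling in live THP-1 cells: cysteine peptides tagged with an iodoacetamide desthiobiotin (IA-DTB) probe, intensity after compound treatment relative to DMSO-treated cells.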
Target,probe-labelled cysteine peptide fold change (10 µM),probe-labelled cysteine peptide fold change (50 µM)
ITGB1_P05556_516_HCECSTDEVNSEDMDAYCR (UniProt P05556),-0.0789,-0.275
INTS1_Q8N201_1433_SHFLACPLLR (UniProt Q8N201),-0.0508,0.0888
IPO11_Q9UI26_894_DCMLMSHLEEPK (UniProt Q9UI26),-0.363,-0.0589
ITGB2_P05107_628_YISCAECLK (UniProt P05107),0.198,0.0242
ITGA5_P08648_192_ILEYAPCR (UniProt P08648),-0.0714,0.0714
INTS2_Q9H0H0_1188_DTGSMDPDVQLCHCIER (UniProt Q9H0H0),0.232,0.034
INVS_Q9Y283_702_GQSACVHFRPNEGSDGSR (UniProt Q9Y283),0.0228,-0.16
IQGAP3_Q86VI3_74_LGHCFAPSVVPLKK (UniProt Q86VI3),0.101,-0.283
IQGAP1_P46940_781_QIPAITCIQSQWR (UniProt P46940),0.0882,0.251
IPO4_Q8TEX9_95_ETEHCVSLSLAQLSATIFRK (UniProt Q8TEX9),-0.201,-0.294
INTS11_Q5TA45_19_SCILVSIAGK (UniProt Q5TA45),0.0767,-0.0856
IQGAP3_Q86VI3_646_GVVPDCANGYQR (UniProt Q86VI3),-0.0746,-0.0296
ISOC2_Q96AB3_136_GLQVHVVVDACSSR (UniProt Q96AB3),-0.129,-0.216
INPPL1_O15357_1187_ESIQEDLAEEAPCLQGGR (UniProt O15357),0.438,0.152
IPO4_Q8TEX9_726_AAHEALGQFCCALHK (UniProt Q8TEX9),-0.0691,-0.471

# Laid out differently: entries from further up
Target | probe-labelled cysteine peptide fold change (10 µM) | probe-labelled cysteine peptide fold change (50 µM)
INTS1_Q8N201_1433_SHFLACPLLR (UniProt Q8N201) | -0.0508 | 0.0888
IPO11_Q9UI26_894_DCMLMSHLEEPK (UniProt Q9UI26) | -0.363 | -0.0589
